{"source": "patent US20100029734A1", "about": "“METHODS FOR BREAST CANCER SCREENING AND TREATMENT” (Ore Pharmaceuticals Inc., priority 2008, published 2010)", "origin": "cited, not measured here", "key": {"[1]": {"test_system": "T47D", "conditions": "read-out: IC50 for antiproliferative effect; estrogen-stimulated T47D cells; cited from earlier work"}, "[2]": {"test_system": "MCF-7", "conditions": "read-out: IC50 for antiproliferative effect; estrogen-stimulated MCF-7 cells; cited from earlier work"}}, "note": "pIC50: −log10 of the molar value.", "data": [{"smiles": "CC/C(=C(\\c1ccccc1)c1ccc(OCCN(C)C)cc1)c1ccccc1", "note": "[tamoxifen]", "values": [{"measurement": "pIC50", "setting": "[1]", "result": 7.93}, {"measurement": "pIC50", "setting": "[2]", "result": 7.34}]}]}
